According to PubChem BioAssay AID248 (DTP/NCI, 2004):
The list shows only some results of the screen, not a fair sample: it covers a few groups of compounds. Other doses and runs of a compound may be missing. T/C: endpoint of the treated group in % of that of the vehicle group. Some doses have a count of surviving animals in place of a T/C: the source files T/C as zero there, which appears to mark a toxic dose or a test without result, not a measured value. Some survivor counts are full or nearly so, which does not show that the dose was tolerated: survival well below the control is almost never listed, so the zero probably covers shortened survival too. Survivors were counted at the toxicity check, usually on the fifth day, unless a day is given; later deaths do not show. Schedule codes are those of the source, taken here to give the interval after Q, in days (D) or hours (H), and the number of doses after X. Some complexes appear as separate parts, the way the source draws them; their charges need not add up. For survival time, the PubChem record calls one and a half times the control and up active, and a quarter to a half above the control has no call in these data; cut-offs in other NCI protocols can differ. Some T/C values carry the count of animals alive at the toxicity check (mostly the fifth day); where neither a count nor a note follows, no animal had died by that day. Some doses were run more than once; the results are listed from low to high. Some entries show no survivor count and are marked so; the dose need not have been tolerated.

System: L1210 leukemia ip in BDF1 mice, survival T/C
Test: NCI In Vivo Anticancer Drug Screen. Data for tumor model L1210 Leukemia (intraperitoneal) in B6D2F1 (BDF1) mice
Conditions: T/C endpoint: mean survival time, higher T/C = longer survival
[1] = dose: 100.0 mg/kg/injection, schedule: Q04DX003 (ip), vehicle: saline
[2] = dose: 100.0 mg/kg/injection, schedule: Q04DX003 (ip), vehicle: Klucel (hydroxypropylcellulose) (HPC)
[3] = dose: 80.0 mg/kg/injection, schedule: Q04DX003 (ip), vehicle: Klucel (hydroxypropylcellulose) (HPC)

[Co].[N-]=[N+]=N.[N-]=[N+]=N.[N-]=[N+]=N.[N-]=[N+]=N.c1ccc([As+](c2ccccc2)(c2ccccc2)c2ccccc2)cc1
survivor count (dose: 50.0 mg/kg/injection, schedule: Q01DX001 (ip), vehicle: saline): 2 of 6 | survivor count (dose: 100.0 mg/kg/injection, schedule: Q01DX001 (ip), vehicle: saline): 0 of 6 | survivor count (dose: 200.0 mg/kg/injection, schedule: Q01DX001 (ip), vehicle: saline): 0 of 6

O=C(O)C(O)(c1ccccc1)c1ccccc1.c1ccc(C(c2ccccc2)n2cc[n+](C(c3ccccc3)c3ccccc3)c2)cc1
T/C (dose: 25.0 mg/kg/injection, schedule: Q04DX002 (ip), vehicle: gum acacia): 107 % of control [survivor count not shown] | T/C (dose: 50.0 mg/kg/injection, schedule: Q04DX002 (ip), vehicle: gum acacia): 88 % of control [survivor count not shown] | T/C (dose: 100.0 mg/kg/injection, schedule: Q04DX002 (ip), vehicle: gum acacia): 105 % of control [survivor count not shown]

O=P(c1ccccc1)(c1ccccc1)N1NN=N/C1=C/c1ccccc1
T/C (dose: 100.0 mg/kg/injection, schedule: Q01DX001 (ip), vehicle: steroid suspending solution): 103 % of control | T/C (dose: 200.0 mg/kg/injection, schedule: Q01DX001 (ip), vehicle: steroid suspending solution): 95 % of control | T/C (dose: 400.0 mg/kg/injection, schedule: Q01DX001 (ip), vehicle: steroid suspending solution): 98 % of control

CC1C(C)(C)P(=O)(Nc2ncn[nH]2)C1(C)C (stereo unspecified)
T/C [1]: 100 % of control | T/C (dose: 200.0 mg/kg/injection, schedule: Q04DX003 (ip), vehicle: saline): 100 % of control | survivor count (dose: 400.0 mg/kg/injection, schedule: Q04DX003 (ip), vehicle: saline): 2 of 4

[N-]=[N+]=Nc1ccc([N+](=O)[O-])c(C(=O)O)c1
T/C (dose: 100.0 mg/kg/injection, schedule: Q04DX002 (ip), vehicle: saline with Tween-80): 88 % of control | T/C (dose: 200.0 mg/kg/injection, schedule: Q04DX002 (ip), vehicle: saline with Tween-80): 95 % of control | T/C (dose: 400.0 mg/kg/injection, schedule: Q04DX002 (ip), vehicle: saline with Tween-80): 98 % of control

Cc1ccc(P(=S)(Cl)Cl)cc1
T/C (dose: 25.0 mg/kg/injection, schedule: Q04DX003 (ip), vehicle: Klucel (hydroxypropylcellulose) (HPC)): 97 % of control | T/C (dose: 50.0 mg/kg/injection, schedule: Q01DX009 (ip), vehicle: Klucel (hydroxypropylcellulose) (HPC)): 93 % of control [4 of 6 alive] | T/C (dose: 50.0 mg/kg/injection, schedule: Q04DX003 (ip), vehicle: Klucel (hydroxypropylcellulose) (HPC)): 91 % of control | survivor count (dose: 100.0 mg/kg/injection, schedule: Q01DX009 (ip), vehicle: Klucel (hydroxypropylcellulose) (HPC)): 3 of 6 | T/C [2]: 99 and 101 % of control | survivor count (dose: 200.0 mg/kg/injection, schedule: Q01DX009 (ip), vehicle: Klucel (hydroxypropylcellulose) (HPC)): 6 of 6 | survivor count (dose: 200.0 mg/kg/injection, schedule: Q04DX003 (ip), vehicle: Klucel (hydroxypropylcellulose) (HPC)): 5 of 6 | survivor count (dose: 400.0 mg/kg/injection, schedule: Q04DX003 (ip), vehicle: Klucel (hydroxypropylcellulose) (HPC)): 6 of 6

NP(=O)(OCCC(=O)O)N(CCCl)CCCl (stereo unspecified)
T/C (dose: 300.0 mg/kg/injection, schedule: Q01DX001 (ip), vehicle: saline with Tween-80): 98 % of control | T/C (dose: 500.0 mg/kg/injection, schedule: Q01DX001 (ip), vehicle: saline with Tween-80): 110 % of control

C1C[N-]1.C1C[N-]1.[Cl][Pt+2][Cl]
T/C (dose: 1.62 mg/kg/injection, schedule: Q01DX009 (ip), vehicle: Klucel (hydroxypropylcellulose) (HPC)): 116 % of control | T/C (dose: 2.5 mg/kg/injection, schedule: Q01DX009 (ip), vehicle: Klucel (hydroxypropylcellulose) (HPC)): 106 % of control | T/C (dose: 2.6 mg/kg/injection, schedule: Q01DX009 (ip), vehicle: Klucel (hydroxypropylcellulose) (HPC)): 102 % of control | T/C (dose: 3.25 mg/kg/injection, schedule: Q01DX009 (ip), vehicle: Klucel (hydroxypropylcellulose) (HPC)): 122 % of control | T/C (dose: 4.0 mg/kg/injection, schedule: Q01DX009 (ip), vehicle: Klucel (hydroxypropylcellulose) (HPC)): 116 % of control | T/C (dose: 5.0 mg/kg/injection, schedule: Q01DX009 (ip), vehicle: Klucel (hydroxypropylcellulose) (HPC)): 100 % of control | T/C (dose: 5.0 mg/kg/injection, schedule: Q04DX003 (ip), vehicle: Klucel (hydroxypropylcellulose) (HPC)): 117 and 121 % of control | T/C (dose: 5.0 mg/kg/injection, schedule: Q04DX003 (ip), vehicle: saline): 110 % of control | T/C (dose: 6.0 mg/kg/injection, schedule: Q01DX009 (ip), vehicle: Klucel (hydroxypropylcellulose) (HPC)): 122 % of control | T/C (dose: 6.25 mg/kg/injection, schedule: Q04DX003 (ip), vehicle: saline): 106 % of control | T/C (dose: 6.5 mg/kg/injection, schedule: Q01DX009 (ip), vehicle: Klucel (hydroxypropylcellulose) (HPC)): 129 % of control | T/C (dose: 8.8 mg/kg/injection, schedule: Q01DX009 (ip), vehicle: Klucel (hydroxypropylcellulose) (HPC)): 151 % of control | T/C (dose: 10.0 mg/kg/injection, schedule: Q01DX009 (ip), vehicle: Klucel (hydroxypropylcellulose) (HPC)): 107 % of control | T/C (dose: 10.0 mg/kg/injection, schedule: Q04DX003 (ip), vehicle: Klucel (hydroxypropylcellulose) (HPC)): 109, 114, 131, 151 % of control | T/C (dose: 10.0 mg/kg/injection, schedule: Q04DX003 (ip), vehicle: saline): 119 % of control | T/C (dose: 12.5 mg/kg/injection, schedule: Q04DX003 (ip), vehicle: saline): 112 % of control | T/C (dose: 13.0 mg/kg/injection, schedule: Q01DX009 (ip), vehicle: Klucel (hydroxypropylcellulose) (HPC)): 125 % of control | T/C (dose: 13.0 mg/kg/injection, schedule: Q04DX003 (ip), vehicle: Klucel (hydroxypropylcellulose) (HPC)): 109 and 134 % of control | T/C (dose: 13.3 mg/kg/injection, schedule: Q01DX009 (ip), vehicle: Klucel (hydroxypropylcellulose) (HPC)): 127 % of control | T/C (dose: 20.0 mg/kg/injection, schedule: Q01DX009 (ip), vehicle: Klucel (hydroxypropylcellulose) (HPC)): 113, 135, 137 % of control | T/C (dose: 20.0 mg/kg/injection, schedule: Q04DX003 (ip), vehicle: Klucel (hydroxypropylcellulose) (HPC)): 110, 121, 122, 130, 150, 152 % of control | T/C (dose: 20.0 mg/kg/injection, schedule: Q04DX003 (ip), vehicle: saline): 119 % of control | T/C (dose: 25.0 mg/kg/injection, schedule: Q04DX003 (ip), vehicle: saline): 137 % of control | T/C (dose: 30.0 mg/kg/injection, schedule: Q01DX009 (ip), vehicle: Klucel (hydroxypropylcellulose) (HPC)): 119 and 133 % of control [5 of 6 alive] | T/C (dose: 30.0 mg/kg/injection, schedule: Q04DX003 (ip), vehicle: Klucel (hydroxypropylcellulose) (HPC)): 124 and 147 % of control | survivor count (dose: 40.0 mg/kg/injection, schedule: Q01DX009 (ip), vehicle: Klucel (hydroxypropylcellulose) (HPC)): 10 of 10 | T/C (dose: 40.0 mg/kg/injection, schedule: Q04DX003 (ip), vehicle: Klucel (hydroxypropylcellulose) (HPC)): 115, 122, 132, 158 % of control | T/C (dose: 40.0 mg/kg/injection, schedule: Q04DX003 (ip), vehicle: saline): 115 % of control | T/C (dose: 45.0 mg/kg/injection, schedule: Q04DX003 (ip), vehicle: Klucel (hydroxypropylcellulose) (HPC)): 96 % of control | T/C (dose: 50.0 mg/kg/injection, schedule: Q04DX003 (ip), vehicle: saline): 93 % of control | T/C (dose: 70.0 mg/kg/injection, schedule: Q04DX003 (ip), vehicle: Klucel (hydroxypropylcellulose) (HPC)): 119 % of control | survivor count (dose: 80.0 mg/kg/injection, schedule: Q01DX009 (ip), vehicle: Klucel (hydroxypropylcellulose) (HPC)): 0 of 10 | T/C [3]: 101 and 105 % of control | survivor count [3]: 6 of 6 | survivor count (dose: 80.0 mg/kg/injection, schedule: Q04DX003 (ip), vehicle: saline): 1 of 6 | T/C [2]: 96 % of control | survivor count [1]: 6 of 6 | T/C (dose: 150.0 mg/kg/injection, schedule: Q04DX003 (ip), vehicle: Klucel (hydroxypropylcellulose) (HPC)): 108 % of control [4 of 6 alive] | T/C (dose: 160.0 mg/kg/injection, schedule: Q04DX003 (ip), vehicle: Klucel (hydroxypropylcellulose) (HPC)): 104 % of control | survivor count (dose: 225.0 mg/kg/injection, schedule: Q04DX003 (ip), vehicle: Klucel (hydroxypropylcellulose) (HPC)): 2 of 6 | survivor count (dose: 335.0 mg/kg/injection, schedule: Q04DX003 (ip), vehicle: Klucel (hydroxypropylcellulose) (HPC)): 1 of 6
